Laboratory results taken from patent US20120316071A1.
No constants are given. Whether binding was seen depends on the method and setting. Some results given as binding are weak or reduced against the parent protein; the word gives no strength.

Amino acid sequences for entries named in this document (tags omitted). A change or cut given only in a name is not applied to a line headed by its entry.
UniProt Q9NR61: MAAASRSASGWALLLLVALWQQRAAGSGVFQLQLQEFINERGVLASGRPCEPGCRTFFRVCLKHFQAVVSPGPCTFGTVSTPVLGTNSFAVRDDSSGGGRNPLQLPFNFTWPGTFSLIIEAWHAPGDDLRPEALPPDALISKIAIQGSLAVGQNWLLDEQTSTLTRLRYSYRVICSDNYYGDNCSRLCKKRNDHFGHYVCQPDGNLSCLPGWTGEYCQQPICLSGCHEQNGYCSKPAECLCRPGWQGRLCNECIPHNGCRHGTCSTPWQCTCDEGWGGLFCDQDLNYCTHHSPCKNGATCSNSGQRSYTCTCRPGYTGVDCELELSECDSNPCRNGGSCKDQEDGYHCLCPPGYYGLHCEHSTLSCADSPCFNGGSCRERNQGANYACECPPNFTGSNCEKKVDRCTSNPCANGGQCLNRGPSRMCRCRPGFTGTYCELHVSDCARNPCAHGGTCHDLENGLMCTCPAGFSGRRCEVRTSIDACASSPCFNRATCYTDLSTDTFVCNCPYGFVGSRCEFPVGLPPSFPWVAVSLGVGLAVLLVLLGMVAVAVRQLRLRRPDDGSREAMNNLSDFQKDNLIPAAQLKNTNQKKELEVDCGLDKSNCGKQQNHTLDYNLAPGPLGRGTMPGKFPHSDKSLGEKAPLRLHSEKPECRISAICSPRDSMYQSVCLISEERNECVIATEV

Columns and labels:
[1] = target: Recombinant Human DLL4 (R&D Systems Cat#1506-D4/CF) (human) (UniProt Q9NR61); assay: ECL
[2] = target: Recombinant Human DLL4 (R&D Systems Cat#1506-D4/CF) (human) (UniProt Q9NR61); assay: ELISA, 100 nM Fab
[3] = target: Recombinant Human DLL4 (R&D Systems Cat#1506-D4/CF) (human) (UniProt Q9NR61); assay: ELISA titration, 2-fold dilutions from 100 nM Fab

Row | binding [1] | binding [2] | binding [3] | Binder
1 | binds |  |  | Fab VH5-51_IGHD5-18*01>3_IGHJ4*01 G100K/G104T (H:KT) & V3-4_IGLJ1*01 S52A/A116T (Fab, V domains shown) VH: EVQLVQSGAEVKKPGESLKISCKGSGYSFTSYWIGWVRQMPGKGLEWMGIIYPGDSDTRYSPSFQGQVTISADKSISTAYLQWSSLKASDTAMYYCARRKYSYTYDYFDYWGQGTLVTVSS VL: QTVVTQEPSFSVSPGGTVTLTCGLASGSVSTSYYPSWYQQTPGQAPRTLIYSTNTRSSGVPDRFSGSILGNKAALTITGAQADDESDYYCVLYMGSGISYVFGTGTKVTVLG
2 |  | binds | binds | Fab H:KT TRV & V3-4_IGLJ1*01 V91L/S96P S52H (Fab, V domains shown) VH: EVQLVQSGAEVKKPGESLKISCKTSGYRFTSYWIVWVRQMPGKGLEWMGIIYPGDSDTRYSPSFQGQVTISADKSISTAYLQWSSLKASDTAMYYCARRKYSYTYDYFDYWGQGTLVTVSS VL: QTVVTQEPSFSVSPGGTVTLTCGLSSGSVSTSYYPSWYQQTPGQAPRTLIYHTNTRSSGVPDRFSGSILGNKAALTITGAQADDESDYYCLLYMGPGISYVFGTGTKVTVL
